PubChem BioAssay AID540256 (National Center for Advancing Translational Sciences (NCATS), 2011)
The whole screen tested about 300,000 compounds, of which about 3,700 (1.2%) were called active. The shares of active, inactive and inconclusive entries below differ from those in the screen. The call rests on the fitted dose curve; tested in HEK293 cells. Potencies beside an inconclusive call are fits to weak or partial responses and may not hold up.

Test: qHTS for Inhibitors of binding or entry into cells for Lassa Virus; further: nearly all actives have a fitted effect of over 50% in size
Conditions: Lassa virus pseudotype entry inhibition, cell reporter; activity change, negative = inhibition: at 37.9 µM (top of the series) unless noted
On the % scale 0 is the no-effect control and ±100 the full control effect; potency means the concentration at half of the fitted maximal effect.

Structure (SMILES) | Potency | activity change, negative = inhibition
COc1ccc(C)cc1S(=O)(=O)Nc1cccnc1 | inconclusive: 6.51 µM [inhibitor, partial curve, poor fit] | 
CC(C)(C)c1cc[n+](CC(=O)Nc2cc(C(F)(F)F)ccc2N2CCOCC2)cc1 |  | inactive: 2%
O=C(c1cc(S(=O)(=O)N2CCOCC2)ccc1Cl)N1CCC(Cc2ccccc2)CC1 | inconclusive: 35.5 µM [inhibitor, single point] | 
COc1cccc(CN(C)C(=O)c2ccc3nccnc3c2)c1 |  | inactive: 0.886%
CC(C)CC(C(=O)NC(C)(C)C)N(CC1CCCO1)C(=O)c1snc(C(N)=O)c1N (stereo not given) |  | inactive: 21.7%
COc1ccc(N2CCN(c3oc(-c4ccccc4C)nc3S(=O)(=O)c3ccccc3)CC2)cc1 | inconclusive: 3.16 µM [inhibitor, single point] | 
CCCC(=O)Nc1ccc(C(=O)NNC(=S)NC(=O)c2ccc(Br)o2)cc1 | inconclusive: 35.5 µM [inhibitor, partial curve, poor fit] | 
O=C(CN1CCN(Cc2ccccc2)CC1)Nc1ccccc1-c1ccccc1 | inconclusive: 22.4 µM [inhibitor, single point] | 
O=C(O)Cn1nc(-c2ccccc2)ccc1=O | inconclusive: 1.41 µM [inhibitor, partial curve, poor fit] | 
COc1cccc(NC(=O)c2ccco2)c1 |  | inactive: 0.066%
Cc1ccc(C2=NN=C(NC(=O)CSc3nnc4c5ccccc5n(C)c4n3)SC2)cc1 | inconclusive: 10 µM [inhibitor, partial curve, poor fit] | 
COc1cccc(-c2nnc(NC(=O)c3ccc(S(=O)(=O)N4CC(C)OC(C)C4)cc3)o2)c1 (stereo not given) | inconclusive: 3.98 µM [inhibitor, full curve] | 
CCc1ccc(OCc2nnc(SCCN3CCOCC3)n2CC)cc1 | inconclusive: 25.9 µM [inhibitor, single point] | 
COC(=O)N/N=C/c1ccc(Oc2ccccc2)cc1 |  | inactive: -16.1%
O=C(NCc1ccccc1Cl)c1ccc2nc(Cc3ccccc3)oc2c1 |  | inactive: 10.8% [at 46.1 µM]
O=C(CN(c1ccccc1)S(=O)(=O)c1ccccc1)Nc1ccccc1C(=O)NCc1ccco1 | inconclusive: 14.6 µM [inhibitor, partial curve] | 
COc1ccc(C(CNC(=O)c2ccc(Cl)c(NC(=O)c3cccs3)c2)N2CCCC2)cc1 (stereo not given) |  | inactive: -4.01%
CC/C(=N\NC(=S)NC(C)C)c1ccc(OC)c(OC)c1 | inconclusive: 15.8 µM [inhibitor, single point] | 
COc1ccc2oc(=O)cc(CN3CCN(c4ccccc4OC)CC3)c2c1 |  | inactive: 6.97% [at 46.1 µM]
CCOC(=O)C1=C(c2cccc(Oc3ccccc3)c2)NC(=S)NC1C (stereo not given) | inconclusive: 20 µM [inhibitor, single point] | 

Reprinted at random: 2 compounds from above.
Structure (SMILES) | Potency | activity change, negative = inhibition
COc1ccc(N2CCN(c3oc(-c4ccccc4C)nc3S(=O)(=O)c3ccccc3)CC2)cc1 | inconclusive: 3.16 µM [inhibitor, single point] | 
CCOC(=O)C1=C(c2cccc(Oc3ccccc3)c2)NC(=S)NC1C (stereo not given) | inconclusive: 20 µM [inhibitor, single point] | 
